Assay results: PubChem BioAssay AID743402 (Broad Institute, 2014)
The whole screen tested about 1,200 compounds, of which about 140 (12%) were called active.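 The calls were made as follows: active = fitted curve falls past -35% activity change at a dose under twice the top valid dose, in every replicate test; inconclusive = replicate tests disagree on the call; inactive = the rest, including activity in the opposite direction.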 The list lacks most of the strong results.

Assay: CFTR-F508del correctors, dose response, FRT cells, YFP quenching, cherry-pick (AID 743402);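 also: compounds act as correctors raising surface CFTR-F508del before acute activation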
Conditions: FRT CFTR-F508del YFP iodide quenching, 24 h, channel opened with forskolin and a potentiator; at 26 µM (top of the series) unless noted

Activity change, negative = more quenching (active), inactive:
COC(=O)c1c(-c2ccc(C)cc2)csc1NC(=O)c1c(-c2ccccc2)noc1C 3.33%
COC(=O)c1cn(NC(=O)c2cc([N+](=O)[O-])ccc2F)c(=O)c2ccccc12 9.58%
CCC1=Nc2cc(C(=O)NCC3CCCO3)ccc2Sc2ccc(Cl)cc21 (stereo not given) 0%
C=C1C(=O)[C@]23C[C@H]1CC[C@H]2[C@]1(C)[C@@H](OC(C)=O)CC[C@@](C)(C(=O)O)[C@H]1C[C@@H]3O 10%
COc1ccc(Nc2nc(-c3sc(C)nc3C)cs2)cc1 -19.2%
COc1cc2c(cc1OC)C(c1cccs1)N(C(=O)c1cccnc1)CC2 (stereo not given) -3.33%
Cc1nnc(NC(=O)CSc2nccn2-c2cccc(C)c2C)s1 0%
O=C1CN(S(=O)(=O)Cc2ccccc2)C[C@@H]2[C@@H](c3ccc(C#Cc4cccc(F)c4)cc3)[C@H](CO)N12 -3.57%
CCC(=O)NC(c1ccc(C)cc1)c1ccc2cccnc2c1O (stereo not given) 13.3%
C[C@H](CO)N1C[C@H](C)[C@H](CN(C)C(=O)NC2CCCCC2)Oc2cc(C#Cc3ccc(F)cc3)ccc2S1(=O)=O 16.5%
C/C=C/c1ccc2c(c1)O[C@@H](CN(C)C(=O)Nc1cccc(F)c1)[C@H](C)CN([C@H](C)CO)S2(=O)=O 6.91%
Cn1c(NCc2ccccc2F)nc2cc(-c3ccsc3)sc2c1=O -16.7%
CCOC(=O)CSC1=C(C#N)C(c2ccc(C)s2)CC(=O)N1 (stereo not given) 9.79%
Cc1cccc(OCC(=O)NNC(=O)c2ccc3nc[nH]c3c2)c1 1.61%
CCN(CC)C(=O)c1oc2ccc(S(=O)(=O)N3CC(C)CC(C)C3)cc2c1C (stereo not given) 17.5%
CC(C)(C)c1csc(NC(=O)Cc2cccs2)n1 -10%
N#C[C@H]1[C@H](c2ccc(C3=CCCCC3)cc2)[C@@H](CO)N1C(=O)NC1CCCCC1 -3.57%
COCCCN=C1NN=C(c2cc(C)n(Cc3ccccc3Cl)c2C)CS1 7.14%
Cc1csc2sc(-c3ccnc(SCC(=O)NCc4ccccc4)n3)c(C)c12 3.85%
COc1ccccc1N1CC(C(=O)Nc2ccc(S(=O)(=O)N3CCCC3)cc2)CC1=O (stereo not given) 9.58%
Cc1c(C2Nc3ccccc3C2C)[nH]c2ccccc12 (stereo not given) -3.57%
Nc1ccn([C@@H]2O[C@H](CO)[C@@H](O)[C@@H]2O)c(=O)n1 -6.67%
COc1cccc(NC(=O)CN2C(=O)NC3(CCCCCC3)C2=O)c1 6.67%
CC(C)(C)NC(=O)c1cccc2c1-c1ccccc1C2=O 8.99%
COc1cc(-c2noc(C)c2C#Cc2ccsc2)cc(OC)c1OC 7.96%
O=C(Nc1ccc(F)cc1)C1CCN(C(=O)c2ccc(F)cc2)CC1 7.96%
COC(=O)c1cn(C(=O)c2ccc(C)cc2C)c2ccccc12 7.42%
O=C(NCc1cccs1)c1cc(-c2ccccc2)nn1CC1CC(c2cccc([N+](=O)[O-])c2)=NO1 (stereo not given) 10%
CCN(c1cccc(C)c1)S(=O)(=O)c1ccc(-c2cc(C)no2)s1 6.67%
COc1ccc(-c2csc(NC(=S)NC(=O)/C=C/c3ccco3)n2)cc1OC -15.4%
Cc1c(OCC(=O)NCCN2CCOCC2)ccc2c3c(c(=O)oc12)CCC3 0%
CCOc1ccc(-c2cc(C(=O)N3CCN(c4ccccn4)CC3)c3ccccc3n2)cc1 22.5%
COc1ccc([N+](=O)[O-])cc1Nc1c2ccccc2nc2ccccc12 -20.9%
Cc1ccc(C(=O)NNC(=O)c2ccc(S(=O)(=O)N3CCCCC3)cc2)cc1 20.9%
O=C(C[C@H]1CC[C@@H]2[C@H](COC[C@@H](O)CN2S(=O)(=O)c2ccccc2)O1)Nc1ccc(-c2ccccc2)cc1 14.3%
COc1ccccc1CNC(=O)Cn1cnnn1 16.7%
Oc1cccc(/C=N/Nc2ccc(Cl)nn2)c1O 9.79%
COc1ccccc1C#Cc1ccc2c(c1)O[C@@H](CN(C)Cc1cccnc1)[C@H](C)CN([C@H](C)CO)S2(=O)=O 1.85%
COc1ccccc1C#Cc1ccc2c(c1)O[C@@H](CN(C)Cc1cccnc1)[C@H](C)CN([C@@H](C)CO)S2(=O)=O 3.57%
COc1ccc(CNCC(=O)Nc2ccccc2-n2cccc2)cc1 16%
Cc1ccc(S(=O)(=O)Nc2cc(C)cc(CCNC=O)c2C)cc1 -1.85%
Cc1ccc(Cc2c(-c3ccc(C)cc3)nc3c(C)cc(Br)cn23)cc1 10.8%
Nc1nc(Cl)nc2c1ncn2C1CC(O)C(CO)O1 (stereo not given) -4.84%
Cc1cccc(C)c1OCC(=O)OCC(=O)Nc1ccc(Cl)cn1 -3.57%
CC(O)CNc1nc(N)[nH]c(=O)c1N=Nc1ccccc1 (stereo not given) 6.67%
CCNC(=S)NNC(=O)CC(C)C 6.46%
Clc1ccc(SCc2cc(N3CCOCC3)nc(-c3ccccn3)n2)cc1 3.12%
CC(=O)O[C@H]1C(=O)[C@]2(C)[C@H]([C@H](OC(=O)c3ccccc3)[C@]3(O)C[C@H](OC(=O)[C@H](O)[C@@H](NC(=O)c4ccccc4)c4ccccc4)C(C)=C1C3(C)C)[C@]1(OC(C)=O)CO[C@@H]1C[C@@H]2O 12.7%
COc1ccc(S(=O)(=O)N2CC[C@@H]3[C@@H](CO)Nc4ccc(-c5cccc(C#N)c5)cc4[C@@H]32)cc1 0%
O=C(Nc1ccccc1F)N1C[C@H]2[C@@H](c3ccccc31)[C@@H](CO)N2C(=O)c1ccccn1 3.57%
Cn1cccc1/C=C1\SC(=Nc2cccc(O)c2)NC1=O 8.28%
COc1ccc2sc3cccc(NCCN(C)C)c3c(=O)c2c1 -3.12%
COc1cc(/C=C(\CC(=O)O)c2nc3ccccc3s2)ccc1OCC(=O)Nc1ccccc1F 0%
OC[C@@H]1CN(Cc2ccc(-c3ccccc3)cc2)C[C@H](n2cnc3c(NC4CC4)ncnc32)O1 6.46%
Cc1ccc2[nH]c(C(=O)N/N=C/c3ccccc3O)c(C)c2c1 18.8%
Cc1cccc(COc2ccccc2C(=O)NC2CCC(O)CC2)c1 (stereo not given) 6.67%
COc1ccc(/C=C2\SC(=O)N(CCNC(=O)C3=COCCO3)C2=O)cc1 6.97%
CC(C)Oc1ncnc2c1[nH]c1ccccc12 6.67%
C[C@H](CO)N1C[C@H](C)[C@@H](CN(C)C(=O)NC2CCCCC2)Oc2cc(C#Cc3ccc(F)cc3)ccc2S1(=O)=O 17.1%
COc1cc(OC)cc(-c2nc3ccccc3c(=O)n2OC(=O)c2ccc(C)c(C)c2)c1 0%
COC(=O)c1ccc(C(=O)NC2CCCc3c2cnn3-c2ccc(C)c(C)c2)cc1 (stereo not given) 3.33%
CO[C@H]1CN(C)C(=O)c2cc(NC(C)=O)ccc2OC[C@H](C)N(C(=O)c2ccncc2)C[C@H]1C 7.14%
CCOc1ccc(C(=O)NCC(=O)N2CCN(Cc3ccccc3)CC2)cc1 7.96%
Cc1ncc(CO)c(/C=N/Nc2ccc(C(F)(F)F)cn2)c1O -6.46%
COc1cc(/C=C(\C#N)C(=O)c2c[nH]c3ccccc23)cc(OC)c1O -37.5%
CC#CCOCC1CNC(=O)O1 (stereo not given) 0%
CC1CCN(S(=O)(=O)N2CCCC(C(=O)NCc3ccccc3Cl)C2)CC1 (stereo not given) 13.3%
CC1(Cc2ccc(F)cc2)C(=O)Nc2c(Cl)ccc(Cl)c21 (stereo not given) 3.33%
Cc1ccc(C(=O)NCC(=O)OCC(=O)NC(C)c2ccccc2)s1 (stereo not given) 13.3%
COc1cc(OC)c2c(-c3cccc(-c4sccc4C(C)=O)c3)cc(=O)oc2c1 -3.12%
C[C@H]1CCCCO[C@@H](CN(C)C(=O)Nc2ccc(C(F)(F)F)cc2)[C@@H](C)CN([C@@H](C)CO)C(=O)c2cc(NC(=O)Nc3ccc4c(c3)OCO4)ccc2O1 14.3%
O=C(NCc1ccccn1)c1n[nH]c(=O)c2ccccc12 9.79%
C/C(=N\NC(=O)c1c(Cl)c(C)nn1C)c1ccc(NC(=O)C2CCC2)cc1 7.96%
O=C(COC(=O)/C=C/c1ccccc1Cl)NC(=O)NCc1ccccc1 -3.33%
COc1ccc(/C=N/NC(=O)c2c(C)nc3ccc(Br)cn23)cc1OC 3.33%
Nc1[nH]nc2ncc3cc4ccccc4nc3c12 4.17%
C#CCN(C)CCCOc1ccc(Cl)cc1Cl 0%
COc1cccc(NC(=O)c2cnc(SCC(=O)NCc3ccc4c(c3)OCO4)n(C)c2=O)c1 10%
O=C(NCc1nnnn1-c1ccc(Cl)cc1)C(=O)c1c[nH]c2ccccc12 6.46%
COc1cc(C(=O)N/N=C(\c2ccccc2)c2ccccn2)cc(OC)c1OC 50%
N#Cc1nc(NCC(F)F)nc(Nc2cc(F)cc(F)c2)n1 -14.6%
COc1ccc(OC)c(N/C(N)=N/c2nc(C)cc(C)n2)c1 16.7%
COc1ccccc1N1CCN(C(CNS(=O)(=O)c2cccs2)c2cccnc2)CC1 (stereo not given) 3.12%
O=C(CCCN1CCC(O)(c2cccc(C(F)(F)F)c2)CC1)c1ccc(F)cc1 18.8%
Cc1ccc(-c2ccc3c(c2)O[C@@H](CN(C)Cc2ccccn2)[C@H](C)CN([C@H](C)CO)S3(=O)=O)cc1 -7.14%

A draw from above in order of formula weight, smallest number first.
Activity change, negative = more quenching (active), inactive:
CCNC(=S)NNC(=O)CC(C)C 6.46%
Nc1ccn([C@@H]2O[C@H](CO)[C@@H](O)[C@@H]2O)c(=O)n1 -6.67%
COC(=O)c1cn(C(=O)c2ccc(C)cc2C)c2ccccc12 7.42%
COc1ccc(Nc2nc(-c3sc(C)nc3C)cs2)cc1 -19.2%
COc1ccc2sc3cccc(NCCN(C)C)c3c(=O)c2c1 -3.12%
COc1cccc(NC(=O)CN2C(=O)NC3(CCCCCC3)C2=O)c1 6.67%
Cc1ccc(S(=O)(=O)Nc2cc(C)cc(CCNC=O)c2C)cc1 -1.85%
COc1cc2c(cc1OC)C(c1cccs1)N(C(=O)c1cccnc1)CC2 (stereo not given) -3.33%
CCOc1ccc(C(=O)NCC(=O)N2CCN(Cc3ccccc3)CC2)cc1 7.96%
COc1cc(C(=O)N/N=C(\c2ccccc2)c2ccccn2)cc(OC)c1OC 50%
CCC1=Nc2cc(C(=O)NCC3CCCO3)ccc2Sc2ccc(Cl)cc21 (stereo not given) 0%
COc1cc(OC)c2c(-c3cccc(-c4sccc4C(C)=O)c3)cc(=O)oc2c1 -3.12%
CC1CCN(S(=O)(=O)N2CCCC(C(=O)NCc3ccccc3Cl)C2)CC1 (stereo not given) 13.3%
COc1ccc(-c2csc(NC(=S)NC(=O)/C=C/c3ccco3)n2)cc1OC -15.4%
CCOc1ccc(-c2cc(C(=O)N3CCN(c4ccccn4)CC3)c3ccccc3n2)cc1 22.5%
COc1cccc(NC(=O)c2cnc(SCC(=O)NCc3ccc4c(c3)OCO4)n(C)c2=O)c1 10%
O=C(NCc1cccs1)c1cc(-c2ccccc2)nn1CC1CC(c2cccc([N+](=O)[O-])c2)=NO1 (stereo not given) 10%
O=C1CN(S(=O)(=O)Cc2ccccc2)C[C@@H]2[C@@H](c3ccc(C#Cc4cccc(F)c4)cc3)[C@H](CO)N12 -3.57%
Cc1ccc(-c2ccc3c(c2)O[C@@H](CN(C)Cc2ccccn2)[C@H](C)CN([C@H](C)CO)S3(=O)=O)cc1 -7.14%
C[C@H](CO)N1C[C@H](C)[C@@H](CN(C)C(=O)NC2CCCCC2)Oc2cc(C#Cc3ccc(F)cc3)ccc2S1(=O)=O 17.1%
